In patent US9290537B2, “Method for cross-linking peptides” (UNIVERSITEIT GENT, priority 2010, dated 2016):
These are yes or no findings as the source states them, for the method shown. Some results given as binding are weak or reduced against the parent protein; the word gives no strength. Sequences can lack the tags named with a protein.

Target: streptavidin (Streptomyces avidinii, UniProt P22629)
Experiment: furan-oxidation cross-linking in solution (10 eq peptide, NBS activation, NaCNBH3 reduction), MALDI-TOF

Row | Binder | binding
1 | AWSHPQFEK (N-terminal (2-furyl)-alanine, capped with 2-naphtoic acid) [free N-terminal furan-StrepTagII peptide 5.2 capped with 2-naphtoic acid] | binds
2 | WSHPQFEKA (C-terminal (2-furyl)-alanine; N-terminally capped with 2-naphtoic acid) [free C-terminal furan-StrepTagII peptide 5.3, N-terminally naphtoylated] | binds
